The other results are listed elsewhere or left out. Most entries show no effect beyond the scatter of the controls.
These targets were tested with Cc1nc(Nc2ncc(C(=O)Nc3c(C)cccc3Cl)s2)cc(N2CCN(CCO)CC2)n1 [dasatinib] (assay: log2 fold change of tryptic peptide abundance, ligand vs vehicle (limited proteolysis) (log2 ratio); higher = more trypsin-susceptible (destabilized)). Settings: ligand concentration: 5 uM; sample: K562 cleared lysate.

Sequences of proteins named here, by UniProt entry; tags and fusion partners are left off. A change or cut given only in a name is not applied to a line headed by its entry.
UniProt P35749, whole entry: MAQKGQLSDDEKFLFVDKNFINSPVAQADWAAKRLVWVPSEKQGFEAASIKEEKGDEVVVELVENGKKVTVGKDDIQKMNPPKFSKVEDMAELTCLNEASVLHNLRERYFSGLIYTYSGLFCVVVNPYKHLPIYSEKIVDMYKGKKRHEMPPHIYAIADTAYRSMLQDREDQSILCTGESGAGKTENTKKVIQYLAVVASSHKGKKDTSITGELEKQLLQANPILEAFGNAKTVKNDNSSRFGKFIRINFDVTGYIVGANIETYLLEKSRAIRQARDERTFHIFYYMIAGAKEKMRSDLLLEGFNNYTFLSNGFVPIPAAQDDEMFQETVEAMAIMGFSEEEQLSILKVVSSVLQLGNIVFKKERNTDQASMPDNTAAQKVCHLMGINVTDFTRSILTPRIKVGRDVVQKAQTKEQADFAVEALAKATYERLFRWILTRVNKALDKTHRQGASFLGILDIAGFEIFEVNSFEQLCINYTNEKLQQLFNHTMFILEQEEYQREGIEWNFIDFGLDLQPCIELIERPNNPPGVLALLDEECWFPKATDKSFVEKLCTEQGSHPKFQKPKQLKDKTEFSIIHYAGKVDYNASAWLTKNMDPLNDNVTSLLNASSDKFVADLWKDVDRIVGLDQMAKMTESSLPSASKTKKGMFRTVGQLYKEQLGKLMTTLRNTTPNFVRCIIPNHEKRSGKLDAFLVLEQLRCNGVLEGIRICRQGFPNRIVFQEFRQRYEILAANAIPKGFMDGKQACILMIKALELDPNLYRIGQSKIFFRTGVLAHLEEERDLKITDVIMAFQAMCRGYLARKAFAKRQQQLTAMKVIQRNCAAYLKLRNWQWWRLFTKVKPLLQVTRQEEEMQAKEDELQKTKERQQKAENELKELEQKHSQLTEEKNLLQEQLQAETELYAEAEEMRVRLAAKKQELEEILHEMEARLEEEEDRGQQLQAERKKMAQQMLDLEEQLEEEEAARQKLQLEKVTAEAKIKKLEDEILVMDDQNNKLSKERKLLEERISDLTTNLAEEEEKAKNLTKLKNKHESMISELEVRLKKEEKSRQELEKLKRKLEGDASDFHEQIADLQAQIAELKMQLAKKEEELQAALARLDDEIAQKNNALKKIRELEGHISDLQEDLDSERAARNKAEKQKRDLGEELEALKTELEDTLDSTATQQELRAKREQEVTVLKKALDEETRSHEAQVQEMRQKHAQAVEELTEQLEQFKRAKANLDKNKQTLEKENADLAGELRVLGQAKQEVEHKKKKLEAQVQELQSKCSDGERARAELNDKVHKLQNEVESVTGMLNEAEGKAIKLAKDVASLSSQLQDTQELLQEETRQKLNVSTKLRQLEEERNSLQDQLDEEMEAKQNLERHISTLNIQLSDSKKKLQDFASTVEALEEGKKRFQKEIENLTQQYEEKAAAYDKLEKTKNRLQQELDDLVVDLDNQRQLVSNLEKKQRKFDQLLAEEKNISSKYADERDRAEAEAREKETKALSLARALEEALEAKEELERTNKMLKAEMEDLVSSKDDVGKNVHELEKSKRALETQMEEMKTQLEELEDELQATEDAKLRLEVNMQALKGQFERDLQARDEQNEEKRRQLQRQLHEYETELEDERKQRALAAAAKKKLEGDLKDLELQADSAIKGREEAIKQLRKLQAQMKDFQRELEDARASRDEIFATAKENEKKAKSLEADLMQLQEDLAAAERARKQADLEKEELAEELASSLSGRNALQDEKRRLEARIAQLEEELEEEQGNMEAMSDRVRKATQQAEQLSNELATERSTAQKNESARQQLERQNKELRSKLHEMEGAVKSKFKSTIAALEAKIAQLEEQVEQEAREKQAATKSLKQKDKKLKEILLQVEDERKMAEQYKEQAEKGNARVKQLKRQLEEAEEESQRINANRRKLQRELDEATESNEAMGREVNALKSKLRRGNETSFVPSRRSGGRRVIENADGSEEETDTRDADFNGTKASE
UniProt P30101, whole entry: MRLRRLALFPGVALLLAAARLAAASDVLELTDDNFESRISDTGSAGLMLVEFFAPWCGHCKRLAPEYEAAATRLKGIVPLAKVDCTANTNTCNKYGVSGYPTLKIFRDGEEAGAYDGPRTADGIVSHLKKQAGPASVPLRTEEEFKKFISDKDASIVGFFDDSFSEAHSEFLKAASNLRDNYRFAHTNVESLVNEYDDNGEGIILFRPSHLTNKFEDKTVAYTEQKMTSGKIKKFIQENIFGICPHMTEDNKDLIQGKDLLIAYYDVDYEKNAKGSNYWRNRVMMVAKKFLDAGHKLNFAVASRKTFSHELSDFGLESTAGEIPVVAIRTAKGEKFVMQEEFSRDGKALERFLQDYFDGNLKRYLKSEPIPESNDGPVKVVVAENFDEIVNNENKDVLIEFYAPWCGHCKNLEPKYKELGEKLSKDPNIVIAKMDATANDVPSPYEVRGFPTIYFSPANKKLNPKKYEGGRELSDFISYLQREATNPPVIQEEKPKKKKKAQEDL
UniProt P41091, whole entry: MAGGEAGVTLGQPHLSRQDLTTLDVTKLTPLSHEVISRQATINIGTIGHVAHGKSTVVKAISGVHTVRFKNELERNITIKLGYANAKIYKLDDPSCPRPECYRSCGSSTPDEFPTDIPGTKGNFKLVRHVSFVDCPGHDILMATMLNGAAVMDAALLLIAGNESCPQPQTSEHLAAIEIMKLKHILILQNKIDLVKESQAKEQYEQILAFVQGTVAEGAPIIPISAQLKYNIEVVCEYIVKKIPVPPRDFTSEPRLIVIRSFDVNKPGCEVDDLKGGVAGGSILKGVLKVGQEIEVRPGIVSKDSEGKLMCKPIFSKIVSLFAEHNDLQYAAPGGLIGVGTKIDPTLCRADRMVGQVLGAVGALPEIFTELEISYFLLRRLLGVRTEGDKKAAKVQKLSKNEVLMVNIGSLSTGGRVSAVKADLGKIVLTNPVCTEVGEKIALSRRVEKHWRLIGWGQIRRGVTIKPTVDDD
UniProt P32189: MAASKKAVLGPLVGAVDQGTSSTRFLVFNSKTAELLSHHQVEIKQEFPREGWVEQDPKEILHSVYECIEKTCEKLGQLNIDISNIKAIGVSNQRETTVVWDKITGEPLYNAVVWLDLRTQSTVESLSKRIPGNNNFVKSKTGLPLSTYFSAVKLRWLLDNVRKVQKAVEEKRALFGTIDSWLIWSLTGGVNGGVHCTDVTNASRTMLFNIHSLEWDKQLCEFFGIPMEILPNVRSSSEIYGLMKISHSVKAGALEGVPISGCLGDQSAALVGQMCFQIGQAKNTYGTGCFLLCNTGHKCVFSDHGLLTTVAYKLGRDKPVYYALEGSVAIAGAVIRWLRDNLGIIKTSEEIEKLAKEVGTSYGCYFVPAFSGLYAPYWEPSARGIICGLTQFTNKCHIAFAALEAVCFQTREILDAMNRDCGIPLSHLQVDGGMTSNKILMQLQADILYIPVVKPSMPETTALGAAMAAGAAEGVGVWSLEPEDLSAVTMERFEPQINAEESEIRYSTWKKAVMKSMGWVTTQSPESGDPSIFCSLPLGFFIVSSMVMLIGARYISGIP
UniProt P42898: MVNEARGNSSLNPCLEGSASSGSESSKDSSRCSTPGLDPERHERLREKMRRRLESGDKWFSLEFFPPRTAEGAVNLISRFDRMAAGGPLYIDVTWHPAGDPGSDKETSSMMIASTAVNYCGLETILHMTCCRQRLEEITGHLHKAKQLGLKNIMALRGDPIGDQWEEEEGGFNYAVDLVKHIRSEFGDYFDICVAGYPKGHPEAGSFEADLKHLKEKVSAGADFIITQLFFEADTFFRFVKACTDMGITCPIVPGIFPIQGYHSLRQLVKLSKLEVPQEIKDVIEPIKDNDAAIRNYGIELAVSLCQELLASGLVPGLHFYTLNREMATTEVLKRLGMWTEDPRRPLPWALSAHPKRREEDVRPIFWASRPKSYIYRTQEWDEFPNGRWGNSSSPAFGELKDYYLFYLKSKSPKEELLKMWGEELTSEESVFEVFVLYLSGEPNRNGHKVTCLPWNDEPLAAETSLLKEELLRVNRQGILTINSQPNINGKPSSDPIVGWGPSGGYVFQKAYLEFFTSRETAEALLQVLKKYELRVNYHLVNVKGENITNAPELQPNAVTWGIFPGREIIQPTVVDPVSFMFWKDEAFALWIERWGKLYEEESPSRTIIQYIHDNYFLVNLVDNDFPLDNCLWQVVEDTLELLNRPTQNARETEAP
UniProt P33240: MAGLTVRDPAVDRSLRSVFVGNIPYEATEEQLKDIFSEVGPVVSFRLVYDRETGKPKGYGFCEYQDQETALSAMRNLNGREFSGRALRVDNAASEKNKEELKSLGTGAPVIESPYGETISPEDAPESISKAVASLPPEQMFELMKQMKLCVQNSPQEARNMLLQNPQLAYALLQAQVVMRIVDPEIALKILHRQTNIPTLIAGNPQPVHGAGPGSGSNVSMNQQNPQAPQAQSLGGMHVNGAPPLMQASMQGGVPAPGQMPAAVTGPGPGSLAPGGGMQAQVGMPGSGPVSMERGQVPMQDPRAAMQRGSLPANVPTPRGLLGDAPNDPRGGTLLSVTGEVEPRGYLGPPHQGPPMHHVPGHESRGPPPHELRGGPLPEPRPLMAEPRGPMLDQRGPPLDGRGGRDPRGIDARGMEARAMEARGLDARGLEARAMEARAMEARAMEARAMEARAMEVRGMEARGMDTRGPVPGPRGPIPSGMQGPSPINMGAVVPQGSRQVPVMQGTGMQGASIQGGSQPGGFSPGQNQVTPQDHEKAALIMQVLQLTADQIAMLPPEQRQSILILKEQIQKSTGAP
UniProt P35606: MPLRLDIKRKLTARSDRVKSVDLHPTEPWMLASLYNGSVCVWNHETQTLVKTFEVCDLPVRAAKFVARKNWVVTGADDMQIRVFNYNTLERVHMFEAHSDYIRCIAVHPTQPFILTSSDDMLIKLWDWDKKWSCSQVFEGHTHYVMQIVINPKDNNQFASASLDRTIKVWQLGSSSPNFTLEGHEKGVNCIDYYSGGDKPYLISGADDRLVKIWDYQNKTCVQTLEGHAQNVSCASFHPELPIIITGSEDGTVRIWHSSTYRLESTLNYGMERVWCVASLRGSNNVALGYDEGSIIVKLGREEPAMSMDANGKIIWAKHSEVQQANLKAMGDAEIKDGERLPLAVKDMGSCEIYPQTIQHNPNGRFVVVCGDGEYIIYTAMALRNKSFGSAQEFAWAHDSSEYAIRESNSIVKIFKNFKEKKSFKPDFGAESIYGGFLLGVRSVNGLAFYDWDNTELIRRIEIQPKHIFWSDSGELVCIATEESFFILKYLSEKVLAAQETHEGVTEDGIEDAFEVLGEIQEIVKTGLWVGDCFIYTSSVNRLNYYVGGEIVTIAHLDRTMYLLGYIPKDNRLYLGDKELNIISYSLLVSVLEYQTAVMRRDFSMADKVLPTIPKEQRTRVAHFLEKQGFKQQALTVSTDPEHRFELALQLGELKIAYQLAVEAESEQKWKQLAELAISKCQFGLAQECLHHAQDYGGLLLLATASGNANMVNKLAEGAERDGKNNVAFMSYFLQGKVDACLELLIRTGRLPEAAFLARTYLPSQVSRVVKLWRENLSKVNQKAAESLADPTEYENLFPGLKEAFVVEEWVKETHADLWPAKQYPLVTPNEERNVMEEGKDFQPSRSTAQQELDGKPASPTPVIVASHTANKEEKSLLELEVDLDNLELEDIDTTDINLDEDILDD
UniProt P35711: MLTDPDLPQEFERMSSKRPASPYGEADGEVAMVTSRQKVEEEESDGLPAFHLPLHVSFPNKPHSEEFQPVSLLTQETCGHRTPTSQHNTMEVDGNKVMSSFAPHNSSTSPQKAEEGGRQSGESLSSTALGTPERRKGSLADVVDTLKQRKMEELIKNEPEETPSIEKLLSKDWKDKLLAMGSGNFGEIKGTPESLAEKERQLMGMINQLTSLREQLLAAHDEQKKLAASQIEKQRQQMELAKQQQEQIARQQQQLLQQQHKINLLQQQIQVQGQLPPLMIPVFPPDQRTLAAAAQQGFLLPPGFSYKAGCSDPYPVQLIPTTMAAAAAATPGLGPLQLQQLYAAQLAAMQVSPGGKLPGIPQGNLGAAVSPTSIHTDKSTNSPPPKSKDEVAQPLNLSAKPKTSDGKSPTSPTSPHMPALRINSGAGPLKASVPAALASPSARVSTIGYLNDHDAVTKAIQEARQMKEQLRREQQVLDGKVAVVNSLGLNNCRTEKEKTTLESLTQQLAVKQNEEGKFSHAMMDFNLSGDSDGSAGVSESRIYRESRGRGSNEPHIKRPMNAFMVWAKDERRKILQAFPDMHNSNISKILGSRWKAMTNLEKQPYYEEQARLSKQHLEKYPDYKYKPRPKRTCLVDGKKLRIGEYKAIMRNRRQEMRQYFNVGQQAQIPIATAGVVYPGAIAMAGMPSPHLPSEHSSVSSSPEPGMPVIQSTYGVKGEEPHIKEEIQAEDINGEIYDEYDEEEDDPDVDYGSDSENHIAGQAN

Target | log2 fold change
GTF2H1 (peptide sequence: AKLQESIEYEDLGKNNSVK, peptide start residue: 352) (UniProt P32780) | 0.499
MPG (peptide sequence: VGVGHAGEWAR, peptide start residue: 262) (UniProt P29372) | -0.24
TKT (peptide sequence: MPSLPSYK, peptide start residue: 303) (UniProt P29401) | 0.177
SHMT2 (peptide sequence: QACTPMFR, peptide start residue: 341) (UniProt P34897) | 0.146
PRDX5 (peptide sequence: THLPGFVEQAEALKAK, peptide start residue: 103) (UniProt P30044) | -0.204
DEK (peptide sequence: KPPTDEELKETIK, peptide start residue: 318) (UniProt P35659) | 0.304
MYH11 (peptide sequence: DLGEELEALK, peptide start residue: 1136) (UniProt P35749) | 0.1
ECHS1 (peptide sequence: NNTVGLIQLNRPK, peptide start residue: 44) (UniProt P30084) | 0.319
RPL3 (peptide sequence: VLTLRKSLLVQTK, peptide start residue: 344) (UniProt P39023) | 1.09
PDIA3 (peptide sequence: RLAPEYEAAATR, peptide start residue: 62) (UniProt P30101) | 0.129
MCAM (peptide sequence: SDKLPEEMGLLQGSSGDKR, peptide start residue: 614) (UniProt P43121) | 0.503
EIF2S3 (peptide sequence: VGQEIEVRPGIVSKDSEGK, peptide start residue: 290) (UniProt P41091) | -0.543
MAGEB1 (peptide sequence: VAHATAAEK, peptide start residue: 27) (UniProt P43366) | -0.528
NUP214 (peptide sequence: DAGGMVIDMK, peptide start residue: 147) (UniProt P35658) | -0.521
RANBP1 (peptide sequence: TLEEDEEELFKMRAK, peptide start residue: 40) (UniProt P43487) | 0.978
RDX (peptide sequence: KTQNDVLHAENVKAGR, peptide start residue: 544) (UniProt P35241) | 1
UniProt P36954 (peptide sequence: TEDHPCQKCGHK, peptide start residue: 81) | -0.284
GK (peptide sequence: EILDAMNR, peptide start residue: 412) (UniProt P32189) | -0.0893
HIBADH (peptide sequence: LLGAASGLRYWSR, peptide start residue: 7) (UniProt P31937) | 0.0432
NF2 (peptide sequence: AQITEEEAK, peptide start residue: 388) (UniProt P35240) | 0.242
MTHFR (peptide sequence: DVIEPIKDNDAAIR, peptide start residue: 282) (UniProt P42898) | -0.139
RPL9 (peptide sequence: RDFNHINVELSLLGK, peptide start residue: 36) (UniProt P32969) | 0.137
SOX6 (peptide sequence: QQMDLAR, peptide start residue: 225) (UniProt P35712) | 0.398
CSTF2 (peptide sequence: AGLTVRDPAVDR, peptide start residue: 2) (UniProt P33240) | -0.0974
COPB2 (peptide sequence: ETHADLWPAKQYPLVTPNEER, peptide start residue: 813) (UniProt P35606) | 0.172
CBS (peptide sequence: CVVILPDSVR, peptide start residue: 370) (UniProt P35520) | 0.16
SOX5 (peptide sequence: VSTIGYLNDHDAVTK, peptide start residue: 444) (UniProt P35711) | 0.169
GPX4 (peptide sequence: YAECGLR, peptide start residue: 90) (UniProt P36969) | -0.126

A few values from the entries so far.
Value for MAGEB1 (peptide sequence: VAHATAAEK, peptide start residue: 27) (UniProt P43366) under log2 fold change: -0.528
Value for PDIA3 (peptide sequence: RLAPEYEAAATR, peptide start residue: 62) (UniProt P30101) under log2 fold change: 0.129
